Measurements from article PMC9606255.
These are yes or no findings as the source states them, for the method shown. In cells and extracts the contact can be indirect. For part of these data: Binding can be weak; no strength is given. For part of these data: Tags and fused reporters may be left off the sequences shown.

The chains behind the UniProt entries cited, without tags or fusion partners. Where a name states a change or a piece, a line headed by the entry shows the natural chain unless it says otherwise.
UniProt Q9C0C2: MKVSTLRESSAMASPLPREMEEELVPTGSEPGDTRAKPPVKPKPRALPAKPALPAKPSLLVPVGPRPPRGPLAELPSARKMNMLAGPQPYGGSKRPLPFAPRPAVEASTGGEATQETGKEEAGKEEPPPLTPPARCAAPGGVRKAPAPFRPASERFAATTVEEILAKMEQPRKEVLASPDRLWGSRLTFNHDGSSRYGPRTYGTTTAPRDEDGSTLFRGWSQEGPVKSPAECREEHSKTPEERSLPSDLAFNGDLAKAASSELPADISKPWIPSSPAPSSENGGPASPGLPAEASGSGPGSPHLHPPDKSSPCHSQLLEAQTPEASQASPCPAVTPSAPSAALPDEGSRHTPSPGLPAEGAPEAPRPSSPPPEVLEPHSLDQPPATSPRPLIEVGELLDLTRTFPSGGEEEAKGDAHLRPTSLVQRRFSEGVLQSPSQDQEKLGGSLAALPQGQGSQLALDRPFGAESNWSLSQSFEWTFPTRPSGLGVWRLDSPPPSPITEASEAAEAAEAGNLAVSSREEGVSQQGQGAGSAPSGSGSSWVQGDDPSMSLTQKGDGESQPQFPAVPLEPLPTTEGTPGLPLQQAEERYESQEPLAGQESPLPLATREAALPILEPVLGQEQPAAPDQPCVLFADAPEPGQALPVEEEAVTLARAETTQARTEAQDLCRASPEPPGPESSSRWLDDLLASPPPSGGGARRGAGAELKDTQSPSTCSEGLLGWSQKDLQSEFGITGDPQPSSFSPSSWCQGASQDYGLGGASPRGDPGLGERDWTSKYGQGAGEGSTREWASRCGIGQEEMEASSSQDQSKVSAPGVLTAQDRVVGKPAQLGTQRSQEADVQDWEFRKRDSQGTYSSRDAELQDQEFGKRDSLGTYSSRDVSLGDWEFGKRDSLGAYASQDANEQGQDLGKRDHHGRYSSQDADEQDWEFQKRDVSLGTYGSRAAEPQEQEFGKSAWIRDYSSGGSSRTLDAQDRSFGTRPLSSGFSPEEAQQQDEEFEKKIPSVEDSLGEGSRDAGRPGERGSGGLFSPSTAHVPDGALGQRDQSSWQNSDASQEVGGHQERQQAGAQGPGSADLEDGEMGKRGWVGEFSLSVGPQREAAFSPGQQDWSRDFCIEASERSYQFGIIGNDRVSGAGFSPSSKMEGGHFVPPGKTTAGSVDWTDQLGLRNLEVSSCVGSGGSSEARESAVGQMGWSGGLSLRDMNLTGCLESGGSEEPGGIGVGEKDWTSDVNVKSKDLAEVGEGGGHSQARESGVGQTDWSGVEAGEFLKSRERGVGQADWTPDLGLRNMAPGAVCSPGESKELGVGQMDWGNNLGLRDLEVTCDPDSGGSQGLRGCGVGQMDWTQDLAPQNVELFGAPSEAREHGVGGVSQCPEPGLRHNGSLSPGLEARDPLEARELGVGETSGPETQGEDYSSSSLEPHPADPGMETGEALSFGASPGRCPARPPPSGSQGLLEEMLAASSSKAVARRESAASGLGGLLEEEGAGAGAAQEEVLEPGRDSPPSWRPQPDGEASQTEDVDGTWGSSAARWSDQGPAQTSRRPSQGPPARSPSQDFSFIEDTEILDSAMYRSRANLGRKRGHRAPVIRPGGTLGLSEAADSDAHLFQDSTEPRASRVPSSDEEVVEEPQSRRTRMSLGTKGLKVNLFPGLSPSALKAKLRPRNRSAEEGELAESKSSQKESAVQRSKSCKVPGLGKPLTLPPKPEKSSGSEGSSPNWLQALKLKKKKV

What was measured:
Experiment in all cases: co-IP; HEK293T (legend: HEK293) cells transfected with Flag-TAB182 and HA-FHL2 plasmids (wild type or mutants) for 48 h, co-IP and western blot
Flag-TAB182-WT (human) = Flag-TAB182-WT (human) (UniProt Q9C0C2)
Flag-TAB182-Δ2 (human) = Flag-TAB182-Δ2 (human) (UniProt Q9C0C2)
Flag-TAB182-Δ1 (human) = Flag-TAB182-Δ1 (human) (UniProt Q9C0C2)

Row | Molecule | binding (Flag-TAB182-WT (human)) | binding (Flag-TAB182-Δ2 (human)) | binding (Flag-TAB182-Δ1 (human))
1 | FHL2-Δ2 (from UniProt Q14192) | no binding | – | –
2 | HA-FHL2 (protein, UniProt Q14192 1-279) MTERFDCHHCNESLFGKKYILREESPYCVVCFETLFANTCEECGKPIGCDCKDLSYKDRHWHEACFHCSQCRNSLVDKPFAAKEDQLLCTDCYSNEYSSKCQECKKTIMPGTRKMEYKGSSWHETCFICHRCQQPIGTKSFIPKDNQNFCVPCYEKQHAMQCVQCKKPITTGGVTYREQPWHKECFVCTACRKQLSGQRFTARDDFAYCLNCFCDLYAKKCAGCTNPISGLGGTKYISFEERQWHNDCFNCKKCSLSLVGRGFLTERDDILCPDCGKDI | – | binds | no binding
